Data reported in PubChem BioAssay AID1671190 (National Center for Advancing Translational Sciences (NCATS), 2021).
The whole screen tested about 580,000 compounds, of which about 6,100 (1.1%) were called active. Inconclusive means that the source gave no clear call. Such entries were picked first, then a sample of the others. Calls come from the whole dose curve; as a rule, active = well fitted inhibition curve with a large enough effect; inconclusive = small, poorly fitted or top-dose-only effect, or another doubt; inactive = no such curve, though single readings can be large or run the other way. Potencies of inconclusive entries are doubtful fits and often do not repeat.

Amino acid sequences for entries named in this document (tags omitted). A change or cut given only in a name is not applied to a line headed by its entry.
UniProt P18054: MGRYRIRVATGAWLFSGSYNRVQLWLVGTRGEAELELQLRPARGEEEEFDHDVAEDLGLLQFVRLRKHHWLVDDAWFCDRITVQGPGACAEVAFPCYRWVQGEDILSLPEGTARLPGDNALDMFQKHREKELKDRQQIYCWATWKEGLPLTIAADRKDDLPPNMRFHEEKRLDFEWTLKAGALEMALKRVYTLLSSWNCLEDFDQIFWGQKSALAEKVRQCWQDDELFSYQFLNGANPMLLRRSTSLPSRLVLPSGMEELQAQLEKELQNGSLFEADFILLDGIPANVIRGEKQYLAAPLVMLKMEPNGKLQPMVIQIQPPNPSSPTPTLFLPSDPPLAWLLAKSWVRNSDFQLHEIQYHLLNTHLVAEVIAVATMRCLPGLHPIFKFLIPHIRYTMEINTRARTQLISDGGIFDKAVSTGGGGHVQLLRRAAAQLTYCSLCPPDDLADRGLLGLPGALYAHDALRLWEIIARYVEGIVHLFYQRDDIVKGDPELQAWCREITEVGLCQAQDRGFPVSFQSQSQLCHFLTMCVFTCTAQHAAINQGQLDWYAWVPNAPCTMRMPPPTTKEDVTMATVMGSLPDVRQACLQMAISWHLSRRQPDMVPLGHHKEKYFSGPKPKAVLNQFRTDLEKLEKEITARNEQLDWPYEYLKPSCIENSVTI

target: Polyunsaturated fatty acid lipoxygenase ALOX12 (Homo sapiens) (UniProt P18054); assay: Primary qHTS assay for inhibitors of human arachidonate 12S-lipoxygenase (ALOX12): Round 2; details: purified 12hLO, xylenol orange hydroperoxide absorbance; activity change, negative = inhibition: at 108 µM (top of the series) unless noted
How it was run: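 Purified human 12hLO at 150 nM in 25 mM Hepes, 0.01% Triton X-100, pH 7.0, preincubated 15 min at room temperature with compound. Reaction started with 40 uM arachidonic acid, 30 min at room temperature. Hydroperoxide measured by Fe-xylenol orange, 573/405 nm absorbance ratio.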
% is set by controls: 0 for no effect and ±100 for the full control effect; potency is the fitted concentration of half-maximal effect.

| Structure (SMILES) | Potency | activity change, negative = inhibition |
| --- | --- | --- |
| CCOc1cc(C(=O)N2CCC(CC3CC(c4ccccc4)=NO3)(C(=O)NCc3ccc(OC)cc3)CC2)cc(OCC)c1OCC (centres undefined) | inconclusive: 39.8 µM [inhibitor, partial curve, poor fit] | – |
| CCN(CC)CC(=O)Nc1sc(C)cc1C(=O)c1ccccc1 | inactive | – |
| COC(=O)c1ccccc1S(=O)(=O)N1Cc2cc([N+](=O)[O-])ccc2Oc2ccccc21 | inconclusive: 112 µM [inhibitor, partial curve, poor fit] | – |
| CC(=O)Nc1ccc(C(=O)N(CCc2ccccc2)Cc2cccs2)s1 | inactive | – |
| COc1cc(Nc2c3c(nc4ccccc24)CCC3)cc(OC)c1OC | inactive | – |
| c1ccc(-c2nnc(-c3ccccn3)s2)nc1 | inconclusive: 70.8 µM [inhibitor, single point] | – |
| Cc1cccc(C)c1NC(=O)CC1(C(=O)O)CCCCC1 | inactive | – |
| S=C(Nc1ccccc1)N1N=CCC1c1ccccc1 (centres undefined) | inactive | – |
| Nc1ccn(C2OC(COP(=O)(O)O)C(O)C2O)c(=O)n1 (centres undefined) | inconclusive: 89.1 µM [inhibitor, partial curve, poor fit] | – |
| CCCn1c(-c2ccncc2)n[nH]c1=S | inconclusive: 35.5 µM [inhibitor, partial curve, poor fit] | – |
| O=C(NCc1ccco1)c1ccc2nc([C@@H]3O[C@H](CO)[C@H](O)[C@H](O)[C@H]3O)[nH]c2c1 | – | inconclusive: -30.5% [inhibitor] |
| COC(=O)c1cc(NCC(=O)N2CCNC2=O)ccc1Cl | inconclusive: 20 µM [inhibitor, full curve, poor fit] | – |
| CCOCCn1c(-n2nc(C)cc2C)nc2c1c(=O)n(C)c(=O)n2C | inactive | – |
| COc1cc(Oc2ccccc2)nc(N)n1 | inactive | – |
| O=C(NCC(=O)N1CCc2ccccc2C1)C1CCC(CNS(=O)(=O)c2ccc(F)cc2)CC1 (centres undefined) | inconclusive: 39.8 µM [inhibitor, partial curve, poor fit] | – |
| Cc1nn2c(c1-c1ccccc1[S+](C)(=O)[O-])N(CCC(C)C)CCC2 | inconclusive: 14.1 µM [inhibitor, full curve] | – |
| Nc1c(C(=O)c2ccccc2)sc2snc(SCC(=O)c3ccccc3)c12 | inconclusive: 6.31 µM [inhibitor, partial curve, poor fit] | – |
| CSCC[C@H](NC(=O)OCc1ccccc1)C(=O)O | inactive | – |
| COc1cccc(C(=O)c2sc(Nc3ccc(F)cc3)nc2N)c1 | inconclusive: 100 µM [inhibitor, single point] | – |
| CC1CCCC(NCC(O)COC(c2ccc(F)cc2)c2ccc(F)cc2)C1C (centres undefined) | inconclusive: 0.794 µM [inhibitor, full curve, poor fit] | – |
| O=C(NN1C(=O)/C(=C/c2cccs2)SC1=S)c1ccncc1 | inconclusive: 56.2 µM [inhibitor, partial curve, poor fit] | – |
| COc1ccc(NS(=O)(=O)c2ccc(N3CCCCC3)c(N)c2)cc1 | inconclusive: 44.7 µM [inhibitor, partial curve, poor fit] | – |
| CN=c1sc(C(=O)Nc2ccccc2)c(C)n1C | inconclusive: 0.631 µM [inhibitor, single point] | – |

As entered above:
Entry of COC(=O)c1cc(NCC(=O)N2CCNC2=O)ccc1Cl under Potency: inconclusive: 20 µM [inhibitor, full curve, poor fit]
Entry of CN=c1sc(C(=O)Nc2ccccc2)c(C)n1C under Potency: inconclusive: 0.631 µM [inhibitor, single point]
Entry of CC1CCCC(NCC(O)COC(c2ccc(F)cc2)c2ccc(F)cc2)C1C (centres undefined) under Potency: inconclusive: 0.794 µM [inhibitor, full curve, poor fit]
Entry of COc1ccc(NS(=O)(=O)c2ccc(N3CCCCC3)c(N)c2)cc1 under Potency: inconclusive: 44.7 µM [inhibitor, partial curve, poor fit]

Carrying on:

| Structure (SMILES) | Potency | activity change, negative = inhibition |
| --- | --- | --- |
| Cc1ccc(NC(=O)N2CCN(c3nnnn3-c3cccc(C(C)C)c3)CC2)cc1F | inconclusive: 39.8 µM [inhibitor, partial curve, poor fit] | – |
| CCNC(=O)C1CCCN(C(=O)c2ccccc2)CC1 (centres undefined) | inconclusive: 112 µM [inhibitor, partial curve, poor fit] | – |
| Cc1cccc(NC(=O)CCl)c1C | inconclusive: 28.2 µM [inhibitor, single point] | – |
| CC(C)NCC#CCOc1ccc(Cl)cc1 | inactive | – |
| O=C(NCc1ccc(N2CCCC2=O)cc1)NC1CCCCC1 | inactive | – |
| CCOC(=O)C(C#N)C(Cc1ccccc1)c1ccco1 (centres undefined) | inconclusive: 31.6 µM [inhibitor, single point] | – |
| COc1cccc(CSc2nc3ccncc3n2Cc2cccc(OC)c2)c1 | inactive | – |
| Clc1cccc(Cc2c(-c3ccccc3)nc3ccc(Br)cn23)c1 | inconclusive: 12.6 µM [inhibitor, full curve, poor fit] | – |
| COc1ccc(NC(=O)c2cc3cc(Br)ccc3oc2=O)cc1 | inconclusive: 79.4 µM [inhibitor, partial curve, poor fit] | – |
| C[C@H]1CN([C@@H](C)CO)S(=O)(=O)c2ccc(Br)cc2O[C@H]1CN(C)C(=O)c1cnccn1 | inconclusive: 89.1 µM [inhibitor, partial curve, poor fit] | – |
| CCOC(=O)COn1c(=O)c(-c2ccc(OC)c(OC)c2)[n+]([O-])c2ccccc21 | inconclusive: 44.7 µM [inhibitor, partial curve, poor fit] | – |
| COc1ccc(Nc2nc(-c3ccc(C)cc3C)cs2)cc1 | inconclusive: 15.8 µM [inhibitor, full curve] | – |
| CCOC(=O)N1CCC(Nc2ncnc3c2cnn3-c2ccc(C)cc2C)CC1 | inactive | – |
| CC(=O)NC(c1ccc(F)c(F)c1)c1nc(-c2cccs2)cs1 (centres undefined) | inconclusive: 89.1 µM [inhibitor, partial curve, poor fit] | – |
| N[C@H](C(=O)O)c1cc(O)cc(O)c1 | inconclusive: 5.01 µM [inhibitor, partial curve] | – |
| O=C(Nc1ccc(Cl)nc1)c1ccc2ccnn2c1 | inconclusive: 44.7 µM [inhibitor, full curve, poor fit] | – |
| O=C(O)/C(=C\c1cccc(F)c1)c1ccc(S(=O)(=O)N2CCCC2)s1 | inconclusive: 112 µM [inhibitor, single point] | – |
| Cc1cc(C)n(Cc2ccc(C(=O)Nc3ccc(Br)cc3C)o2)n1 | active: 35.5 µM | – |
| Cc1cccc(NC(=S)NC(=O)CCc2ccccc2)c1 | inconclusive: 35.5 µM [inhibitor, partial curve, poor fit] | – |
| Cc1cc(OCc2nnc(SCc3cc(=O)c4cc(C(N)=O)ccc4[nH]3)n2C)cc(C)c1Cl | inconclusive: 79.4 µM [inhibitor, single point] | – |
| CCCCCC(=O)NC(NC(=S)Nc1ccc(S(N)(=O)=O)cc1)C(Cl)(Cl)Cl (centres undefined) | inconclusive: 50.1 µM [inhibitor, partial curve, poor fit] | – |
| CC1=C(C(=O)N2CCOCC2)CC(CC(=O)NCCCCc2ccccc2)C(=O)N1CCCN1CCCC1=O (centres undefined) | inconclusive: 112 µM [inhibitor, single point] | – |
| CCN1CCN(C(=O)C(=O)c2cn(CC(=O)N3CCCC3)c3ccccc23)CC1 | inactive | – |

| Structure (SMILES) | Potency | activity change, negative = inhibition |
| --- | --- | --- |
| COC(=O)C(O)(CC(=O)Nc1ccccc1OC)C(F)(F)F (centres undefined) | inactive | – |
| Cc1cc(C(F)F)nn1Cc1nc2c3c4c(sc3ncn2n1)CC(C(C)(C)C)CC4 (centres undefined) | inconclusive: 6.31 µM [inhibitor, partial curve, poor fit] | – |
| C/C(CC(=O)Nc1cccc2c1CCCC2)=N\NC(=O)c1ccccn1 | inactive | – |
| CN1Cc2c(cc(N3CCOCC3)nc2-c2ccccc2OC(F)(F)F)C1=O | inactive | – |
| N=c1c(C(=O)NCCN2CCOCC2)cc2c(=O)n3ccccc3nc2n1CCCN1CCOCC1 | inconclusive: 50.1 µM [inhibitor, partial curve, poor fit] | – |
| CCCCCCCCCOc1cccc(CNc2cccc3ccccc23)c1 | inconclusive: 12.6 µM [inhibitor, full curve] | – |
| COc1ccc(NC(=O)c2n[nH]c(=O)c3ccccc23)cc1OC1CCCC1 | inconclusive: 112 µM [inhibitor, single point] | – |
| O=Cc1ccc(N2CCN(C(=O)N3CCOCC3)CC2=O)cc1 | – | inactive: 9.16% [at 6.33 µM] |
| CCOc1ccc(NC(=O)c2cc3c(s2)CN(C2CCCC2)C3)cc1 | inconclusive: 8.91 µM [inhibitor, full curve] | – |
| COc1ccc(S(=O)(=O)Nc2ccc(C)n(CC(=O)N(C)Cc3ccco3)c2=O)cc1 | inconclusive: 7.08 µM [inhibitor, full curve] | – |
| CCCCNC(=O)CSc1cc(=O)n(C)c2ccccc12 | inactive | – |
| Cc1cnc(C(=O)N2CCN(S(=O)(=O)c3cccc(Br)c3)CC2)cn1 | inactive | – |
| CC(C)c1nnc(NC(=O)CSc2nc3ccccc3[nH]2)s1 | inactive | – |
| CCCCCCSc1ccc(-c2nc3ccc(C)cn3c2NCCCC)cc1OC | inconclusive: 44.7 µM [inhibitor, partial curve, poor fit] | – |
| O=C(/C=C/NCc1ccccc1)C(F)(F)F | inactive | – |
| Cc1cc(C)n2ncc(/C(N)=N/OC(=O)Nc3ccccc3)c2n1 | inconclusive: 126 µM [inhibitor, partial curve, poor fit] | – |
| COc1cccc(NC(=O)N2CCC(C(=O)Nc3ccc(C)cc3C)CC2)c1 | inactive | – |
| CCCCCCCc1ccc(C(=O)Nc2ccccc2C)cc1 | inconclusive: 89.1 µM [inhibitor, single point] | – |
| COc1ccc(Nc2nc3c(C)cccc3cc2C#N)c(OC)c1 | inconclusive: 50.1 µM [inhibitor, partial curve, poor fit] | – |
| Cc1onc(-c2ccccc2)c1C(=O)NN=Cc1cc(Cl)cc(Cl)c1O | active: 12.6 µM | – |
| CCOC(=O)[C@]12CCCC=C1N(CCC1=CCCCC1)C(=O)[C@H](CC(=O)NCc1cccs1)C2 | inconclusive: 1.26 µM [inhibitor, full curve, poor fit] | – |
| CC(C)c1ccc(NC(=O)N2CCc3nc(NCc4cccc(Oc5ccccc5)c4)ncc3C2)cc1 | inconclusive: 39.8 µM [inhibitor, partial curve, poor fit] | – |
| Cc1cc(C)c(CNC(=O)c2nc(-c3cccc(O)c3)cc3c2ccn3C(C)C)c(=O)[nH]1 | inactive | – |
